In patent publication US4146615A, “Chrysanthellum plant extract” (Laboratoires Sarget, priority 1977, dated 1979):
The name of at least one read-out is uncertain.

Test system: constraint ulcer
Test: Anti-ulcer activity, constraint ulcer test (Bonfils)
Assay type: in vivo, rat
Details: 50 mg/kg PO; 1440 min
Experimental: The anti-ulcer activity was determined in female EOPS Wistar rats in the constraint ulcer test by the technique of Bonfils.
After 24 hours without food the rats, lightly anesthetized with ether, were immobilized in pliable metal-lattice corselets. The paws were tied together in pairs. The rats were suspended in their cages so that they could not touch any point of support. Just before anesthesia the test samples were administered PO in suspension in gum julep in a volume of 0.5 cc/100g. The animals were left constrained for 24 hours and then killed with ether. The stomachs were removed and cut along the greatest curvature. They were stretched out on cork slabs covered with glazed paper to facilitate examination and photographing. A scale of 0 to 4 was used for the number and dimension of ulcerations (0 for no ulceration, 4 for more than 4 ulcers or a perforation).

## β-aescine
  % of Mortality in the Course of Experiment: 0%
